Our source for the binding values is article PMC6030054.

Protein sequences, listed by entry. Tags and fused reporters are not part of them. Residues count along the entry.
UniProt Q03142, residues 17-799: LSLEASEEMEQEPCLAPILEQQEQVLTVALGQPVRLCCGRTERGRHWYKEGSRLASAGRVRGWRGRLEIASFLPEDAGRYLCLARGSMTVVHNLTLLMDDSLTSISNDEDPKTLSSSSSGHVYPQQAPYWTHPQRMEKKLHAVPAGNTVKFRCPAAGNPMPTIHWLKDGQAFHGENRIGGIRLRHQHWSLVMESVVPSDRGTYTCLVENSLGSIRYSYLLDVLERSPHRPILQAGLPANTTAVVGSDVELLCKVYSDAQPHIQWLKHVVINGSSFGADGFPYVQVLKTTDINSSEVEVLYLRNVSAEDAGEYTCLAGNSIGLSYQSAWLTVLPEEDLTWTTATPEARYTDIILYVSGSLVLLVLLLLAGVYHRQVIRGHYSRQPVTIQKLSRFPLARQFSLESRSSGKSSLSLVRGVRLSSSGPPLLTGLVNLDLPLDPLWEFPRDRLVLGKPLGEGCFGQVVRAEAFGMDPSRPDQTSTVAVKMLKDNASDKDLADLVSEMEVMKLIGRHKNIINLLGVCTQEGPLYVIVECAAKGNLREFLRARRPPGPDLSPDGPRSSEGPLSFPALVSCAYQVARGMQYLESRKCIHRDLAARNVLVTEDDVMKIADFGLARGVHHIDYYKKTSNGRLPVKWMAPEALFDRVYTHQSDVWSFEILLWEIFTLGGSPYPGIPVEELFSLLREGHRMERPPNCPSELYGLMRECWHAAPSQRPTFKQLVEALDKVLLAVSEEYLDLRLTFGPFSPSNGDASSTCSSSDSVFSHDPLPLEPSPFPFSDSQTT

In this assay the target is FGF receptor 4 (FGFR4), endogenous mouse (mouse (endogenous in primary mouse hepatocytes)) (UniProt Q03142). Put plainly: co-IP; whole cell extracts of primary mouse hepatocytes treated with FGF19 (10 or 30 min or indicated times; some with siRNA for Src or ERK); immunoprecipitation with anti-FGFR4, anti-Src, anti-Shp2 or anti-FRS2; endogenous proteins detected by IB; CoIP buffer (50 mM Tris pH 8.0, 150 mM NaCl, 2 mM EDTA, 0.3% NP40, 10% glycerol).

Results are given in words; binding and its absence hold for the method and conditions named. Binding seen in cells or lysates may run through a third protein. Some entries that bind do so weakly or less than the wild type.

B1: FRS2, endogenous mouse (protein, UniProt Q8C180 1-508)
chain: MGSCCSCPDKDTVPDNHRNKFKVINVDDDGNELGSGVMELTDTELILYTRKRDSVKWHYLCLRRYGYDSNLFSFESGRRCQTGQGIFAFKCARAEELFNMLQEIMQNNSINVVEEPVVERSSHQTELEVPRTPRTPTTPGLGAQNLPNGYPRYPSFGDASSHPSSRHPSVGSARLPSVGEESTHPLLVAEEQVHTYVNTTGVQEERKNRASVHVPPEARVSNAESNTPKEEPSNPEDRDPQVLLKPEGVRFVLGPTPVQKQLMEKEKLEQLGKDPVSGSGAGNTEWDTGYDSDERRDVPPVNKLVYENINGLSIPSASGVRRGRLTSTSTSDTQNINNSAQRRPALLNYENLPSLPPVWEARKLSRDEDDNLGPKTPSLNGYHNNLDPMHNYVNTENVTVPASAHKIDYSKRRDCTPTVFNFDIRRPSLEHRQLNYIQVDLEGGSDSDNPQTPKTPTTPLPQTPTRRTELYAVIDIERTAAMSNLQKALPRDDGTSRKTRHNSTDLPM
As for B1, the binding result was “binds”.

B2: Farnesoid-X-Receptor (FXR), endogenous mouse (protein, UniProt Q60641 1-488)
chain: MVMQFQGLENPIQISLHHSHRLSGFVPEGMSVKPAKGMLTEHAAGPLGQNLDLESYSPYNNVPFPQVQPQISSSSYYSNLGFYPQQPEDWYSPGIYELRRMPAETGYQGETEVSEMPVTKKPRMAAASAGRIKGDELCVVCGDRASGYHYNALTCEGCKGFFRRSITKNAVYKCKNGGNCVMDMYMRRKCQECRLRKCKEMGMLAECMYTGLLTEIQCKSKRLRKNVKQHADQTANEDDSEGRDLRQVTSTTKFCREKTELTADQQTLLDYIMDSYNKQRMPQEITNKILKEEFSAEENFLILTEMATSHVQILVEFTKKLPGFQTLDHEDQIALLKGSAVEAMFLRSAEIFNKKLPAGHADLLEERIRKSGISDEYITPMFSFYKSVGELKMTQEEYALLTAIVILSPDRQYIKDREAVEKLQEPLLDVLQKLCKMYQPENPQHFACLLGRLTELRTFNHHHAEMLMSWRVNDHKFTPLLCEIWDVQ
Regarding B2, the binding result is listed as “no binding”.
